Some of the results follow.
Compound: CC1Cc2ccccc2N1C(=O)C1CCCN(C1)C(=O)CCl (mixture of isomers) [TRIM25 ligand 11 (diastereomer mixture)]
Test: probe-labelled cysteine peptide fold change vs DMSO (competition) (log2 fold change); higher = less target engagement (more negative = stronger competition)
Conditions: THP-1, incubation time: 4 h
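Further: competitive chemoproteomic profiling in live THP-1 cells with an iodoacetamide desthiobiotin (IA-DTB) probe, comparing probe-labelled peptide intensities in compound-treated cells against DMSO-treated controls.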

The chains behind the UniProt entries cited, without tags or fusion partners. Where a name states a change or a piece, a line headed by the entry shows the natural chain unless it says otherwise.
UniProt Q9BSC4: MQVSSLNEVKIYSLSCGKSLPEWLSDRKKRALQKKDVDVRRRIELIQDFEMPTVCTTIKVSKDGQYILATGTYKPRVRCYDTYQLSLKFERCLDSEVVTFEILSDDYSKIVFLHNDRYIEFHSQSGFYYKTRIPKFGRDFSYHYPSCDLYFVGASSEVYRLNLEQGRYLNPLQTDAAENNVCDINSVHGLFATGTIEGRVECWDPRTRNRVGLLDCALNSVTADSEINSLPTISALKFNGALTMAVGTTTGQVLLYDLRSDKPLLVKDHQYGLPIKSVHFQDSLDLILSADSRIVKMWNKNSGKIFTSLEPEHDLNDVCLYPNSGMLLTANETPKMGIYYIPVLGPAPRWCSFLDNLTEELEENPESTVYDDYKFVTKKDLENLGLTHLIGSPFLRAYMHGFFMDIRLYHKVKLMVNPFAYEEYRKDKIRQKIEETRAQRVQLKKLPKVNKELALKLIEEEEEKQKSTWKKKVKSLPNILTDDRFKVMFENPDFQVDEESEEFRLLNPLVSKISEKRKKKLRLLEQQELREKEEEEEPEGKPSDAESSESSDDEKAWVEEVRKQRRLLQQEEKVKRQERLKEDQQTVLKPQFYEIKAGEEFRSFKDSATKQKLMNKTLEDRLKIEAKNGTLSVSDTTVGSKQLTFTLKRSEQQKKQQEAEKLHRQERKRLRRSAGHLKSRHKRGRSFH
UniProt Q15738: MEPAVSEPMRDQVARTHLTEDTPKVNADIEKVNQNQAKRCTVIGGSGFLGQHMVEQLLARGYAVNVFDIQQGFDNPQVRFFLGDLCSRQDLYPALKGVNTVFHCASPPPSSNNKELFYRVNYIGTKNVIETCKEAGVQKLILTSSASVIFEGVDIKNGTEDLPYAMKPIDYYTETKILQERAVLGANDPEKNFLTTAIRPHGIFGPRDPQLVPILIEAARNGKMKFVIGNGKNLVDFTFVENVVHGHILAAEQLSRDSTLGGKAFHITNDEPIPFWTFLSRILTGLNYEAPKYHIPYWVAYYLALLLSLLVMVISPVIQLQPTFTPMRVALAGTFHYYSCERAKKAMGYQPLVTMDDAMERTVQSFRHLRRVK
UniProt Q08J23, whole entry, looked up: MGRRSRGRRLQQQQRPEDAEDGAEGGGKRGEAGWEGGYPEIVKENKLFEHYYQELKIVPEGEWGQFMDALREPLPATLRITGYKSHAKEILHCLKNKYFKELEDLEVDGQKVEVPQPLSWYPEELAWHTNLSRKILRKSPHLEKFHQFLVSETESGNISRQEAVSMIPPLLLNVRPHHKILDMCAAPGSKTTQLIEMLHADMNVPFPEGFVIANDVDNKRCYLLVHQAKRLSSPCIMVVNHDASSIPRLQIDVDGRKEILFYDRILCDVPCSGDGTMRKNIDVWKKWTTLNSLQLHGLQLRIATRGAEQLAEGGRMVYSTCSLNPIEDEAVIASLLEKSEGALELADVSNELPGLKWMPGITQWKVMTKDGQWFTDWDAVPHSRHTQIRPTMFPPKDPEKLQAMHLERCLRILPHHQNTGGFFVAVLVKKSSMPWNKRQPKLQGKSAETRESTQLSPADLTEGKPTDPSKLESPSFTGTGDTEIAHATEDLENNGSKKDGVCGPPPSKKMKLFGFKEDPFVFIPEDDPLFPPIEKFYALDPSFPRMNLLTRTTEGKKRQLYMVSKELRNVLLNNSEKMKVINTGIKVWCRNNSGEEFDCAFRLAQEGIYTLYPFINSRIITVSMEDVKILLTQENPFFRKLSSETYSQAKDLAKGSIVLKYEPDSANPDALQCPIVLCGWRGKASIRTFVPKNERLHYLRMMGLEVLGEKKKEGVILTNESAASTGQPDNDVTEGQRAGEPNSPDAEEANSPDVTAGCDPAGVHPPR
UniProt O75607: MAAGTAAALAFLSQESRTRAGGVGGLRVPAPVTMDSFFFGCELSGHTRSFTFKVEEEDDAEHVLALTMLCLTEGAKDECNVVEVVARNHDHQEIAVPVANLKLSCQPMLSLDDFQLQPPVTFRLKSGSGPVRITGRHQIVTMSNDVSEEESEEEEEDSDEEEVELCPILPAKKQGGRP
UniProt Q8TAT6: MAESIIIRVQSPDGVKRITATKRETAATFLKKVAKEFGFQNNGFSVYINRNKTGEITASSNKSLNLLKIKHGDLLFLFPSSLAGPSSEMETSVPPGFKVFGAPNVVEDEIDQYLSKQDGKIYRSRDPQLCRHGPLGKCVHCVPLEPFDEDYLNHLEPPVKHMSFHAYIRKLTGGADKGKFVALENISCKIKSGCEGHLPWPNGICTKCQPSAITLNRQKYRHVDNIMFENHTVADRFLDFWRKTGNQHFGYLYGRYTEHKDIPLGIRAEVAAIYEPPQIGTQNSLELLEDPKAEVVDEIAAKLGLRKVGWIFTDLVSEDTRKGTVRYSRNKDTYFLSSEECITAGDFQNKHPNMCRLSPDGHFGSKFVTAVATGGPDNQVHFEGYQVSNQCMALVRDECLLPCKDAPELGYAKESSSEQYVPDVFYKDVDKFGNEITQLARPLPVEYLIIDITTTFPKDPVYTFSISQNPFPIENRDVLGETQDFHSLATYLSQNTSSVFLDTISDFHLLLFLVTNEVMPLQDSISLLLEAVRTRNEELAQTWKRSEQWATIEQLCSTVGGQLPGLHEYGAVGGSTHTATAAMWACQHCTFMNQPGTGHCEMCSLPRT
UniProt P46459: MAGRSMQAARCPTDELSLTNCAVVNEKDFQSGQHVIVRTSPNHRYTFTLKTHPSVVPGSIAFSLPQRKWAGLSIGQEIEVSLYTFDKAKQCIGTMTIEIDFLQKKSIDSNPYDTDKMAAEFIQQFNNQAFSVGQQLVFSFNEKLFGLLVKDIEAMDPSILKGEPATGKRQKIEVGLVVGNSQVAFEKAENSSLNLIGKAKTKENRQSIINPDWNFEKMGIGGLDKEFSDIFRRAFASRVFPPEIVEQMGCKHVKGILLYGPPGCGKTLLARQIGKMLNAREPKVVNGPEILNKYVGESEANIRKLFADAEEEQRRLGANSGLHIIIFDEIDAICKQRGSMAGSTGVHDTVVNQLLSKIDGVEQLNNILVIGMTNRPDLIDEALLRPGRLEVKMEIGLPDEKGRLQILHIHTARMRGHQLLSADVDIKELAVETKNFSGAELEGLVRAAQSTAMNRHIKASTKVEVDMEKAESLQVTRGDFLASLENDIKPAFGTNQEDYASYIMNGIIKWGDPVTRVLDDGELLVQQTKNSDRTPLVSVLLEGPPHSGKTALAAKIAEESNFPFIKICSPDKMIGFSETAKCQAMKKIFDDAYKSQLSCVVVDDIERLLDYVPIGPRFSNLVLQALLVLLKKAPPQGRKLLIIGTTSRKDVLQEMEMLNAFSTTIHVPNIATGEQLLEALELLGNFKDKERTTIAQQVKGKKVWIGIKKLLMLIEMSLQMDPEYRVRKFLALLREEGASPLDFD
UniProt Q8NDH3: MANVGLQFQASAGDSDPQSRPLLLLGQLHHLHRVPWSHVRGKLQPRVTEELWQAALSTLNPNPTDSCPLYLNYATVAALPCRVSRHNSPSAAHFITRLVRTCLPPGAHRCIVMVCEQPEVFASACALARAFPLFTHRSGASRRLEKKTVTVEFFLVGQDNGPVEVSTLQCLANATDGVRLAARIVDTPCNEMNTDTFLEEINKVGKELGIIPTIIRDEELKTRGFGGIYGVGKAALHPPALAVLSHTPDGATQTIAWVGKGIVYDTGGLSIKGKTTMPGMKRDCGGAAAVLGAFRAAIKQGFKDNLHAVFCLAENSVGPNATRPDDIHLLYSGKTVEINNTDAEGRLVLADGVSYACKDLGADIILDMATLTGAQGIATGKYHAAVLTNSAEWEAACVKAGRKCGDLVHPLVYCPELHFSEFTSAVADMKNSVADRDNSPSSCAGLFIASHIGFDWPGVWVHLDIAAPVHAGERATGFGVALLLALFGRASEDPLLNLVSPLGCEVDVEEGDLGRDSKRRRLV
UniProt O15226: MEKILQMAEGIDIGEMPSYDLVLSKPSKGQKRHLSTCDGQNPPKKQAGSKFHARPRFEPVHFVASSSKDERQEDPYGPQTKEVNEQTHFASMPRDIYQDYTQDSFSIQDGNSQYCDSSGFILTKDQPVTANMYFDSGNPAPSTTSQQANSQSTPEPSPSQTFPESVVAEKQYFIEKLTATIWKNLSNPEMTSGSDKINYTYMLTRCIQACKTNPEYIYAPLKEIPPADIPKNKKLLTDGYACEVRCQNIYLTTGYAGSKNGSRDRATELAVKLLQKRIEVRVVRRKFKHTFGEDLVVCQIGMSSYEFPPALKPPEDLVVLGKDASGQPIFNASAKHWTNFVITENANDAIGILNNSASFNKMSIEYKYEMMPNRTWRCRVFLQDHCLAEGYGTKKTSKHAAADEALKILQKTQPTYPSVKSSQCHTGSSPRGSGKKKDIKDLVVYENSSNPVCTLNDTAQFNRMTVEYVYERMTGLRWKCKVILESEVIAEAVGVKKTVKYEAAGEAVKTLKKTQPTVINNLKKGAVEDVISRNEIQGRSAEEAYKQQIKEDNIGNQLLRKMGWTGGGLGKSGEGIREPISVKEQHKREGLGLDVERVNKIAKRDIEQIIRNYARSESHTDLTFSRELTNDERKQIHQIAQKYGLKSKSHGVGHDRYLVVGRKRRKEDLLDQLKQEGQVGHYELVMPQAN
UniProt Q96IY1: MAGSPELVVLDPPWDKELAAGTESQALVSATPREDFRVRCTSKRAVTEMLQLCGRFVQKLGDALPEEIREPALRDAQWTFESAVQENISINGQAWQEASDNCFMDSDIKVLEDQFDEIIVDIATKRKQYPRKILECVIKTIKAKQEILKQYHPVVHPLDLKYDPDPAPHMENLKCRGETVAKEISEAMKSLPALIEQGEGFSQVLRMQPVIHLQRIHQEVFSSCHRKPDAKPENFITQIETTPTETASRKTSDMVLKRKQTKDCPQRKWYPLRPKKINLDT
UniProt Q5JPE7: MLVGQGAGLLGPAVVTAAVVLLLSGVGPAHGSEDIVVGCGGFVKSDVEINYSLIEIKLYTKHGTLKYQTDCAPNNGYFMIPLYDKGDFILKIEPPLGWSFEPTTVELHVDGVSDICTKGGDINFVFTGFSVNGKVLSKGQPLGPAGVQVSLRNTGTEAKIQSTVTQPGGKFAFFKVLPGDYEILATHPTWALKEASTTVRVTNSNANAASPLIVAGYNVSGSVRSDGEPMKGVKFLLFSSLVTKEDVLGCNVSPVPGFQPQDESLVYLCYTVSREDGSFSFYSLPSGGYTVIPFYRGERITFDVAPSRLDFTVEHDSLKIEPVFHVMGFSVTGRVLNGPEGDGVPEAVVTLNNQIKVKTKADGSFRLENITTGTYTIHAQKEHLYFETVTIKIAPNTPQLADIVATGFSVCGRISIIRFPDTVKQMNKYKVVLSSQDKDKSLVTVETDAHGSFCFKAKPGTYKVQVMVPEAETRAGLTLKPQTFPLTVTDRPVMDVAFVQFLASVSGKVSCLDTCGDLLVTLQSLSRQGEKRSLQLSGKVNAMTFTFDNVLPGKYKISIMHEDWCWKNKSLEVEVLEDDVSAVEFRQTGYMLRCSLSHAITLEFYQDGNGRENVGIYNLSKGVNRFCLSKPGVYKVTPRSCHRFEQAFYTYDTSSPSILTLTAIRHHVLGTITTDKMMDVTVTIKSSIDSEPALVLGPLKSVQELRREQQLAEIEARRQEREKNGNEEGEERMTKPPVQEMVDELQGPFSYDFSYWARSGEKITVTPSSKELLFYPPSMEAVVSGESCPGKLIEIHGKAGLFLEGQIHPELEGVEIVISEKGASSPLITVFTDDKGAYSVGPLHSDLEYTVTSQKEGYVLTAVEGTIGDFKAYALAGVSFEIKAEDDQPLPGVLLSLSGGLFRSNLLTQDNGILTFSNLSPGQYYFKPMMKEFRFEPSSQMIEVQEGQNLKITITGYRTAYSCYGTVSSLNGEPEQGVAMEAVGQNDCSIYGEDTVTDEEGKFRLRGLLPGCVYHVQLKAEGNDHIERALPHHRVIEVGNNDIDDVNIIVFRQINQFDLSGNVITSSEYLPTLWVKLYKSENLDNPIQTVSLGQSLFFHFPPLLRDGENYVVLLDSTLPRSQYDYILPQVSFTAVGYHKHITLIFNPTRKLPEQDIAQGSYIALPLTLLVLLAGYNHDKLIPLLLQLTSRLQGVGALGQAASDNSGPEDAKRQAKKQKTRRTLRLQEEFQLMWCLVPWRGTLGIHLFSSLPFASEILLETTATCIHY
UniProt P06748, whole entry: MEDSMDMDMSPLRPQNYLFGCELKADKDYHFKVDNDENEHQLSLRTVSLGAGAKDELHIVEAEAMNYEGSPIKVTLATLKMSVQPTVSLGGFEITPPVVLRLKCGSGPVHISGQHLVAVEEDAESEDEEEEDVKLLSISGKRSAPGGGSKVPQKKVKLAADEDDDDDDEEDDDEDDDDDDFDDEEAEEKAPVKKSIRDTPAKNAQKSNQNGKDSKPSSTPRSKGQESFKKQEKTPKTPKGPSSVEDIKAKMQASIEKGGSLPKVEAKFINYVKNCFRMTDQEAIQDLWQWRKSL

| Target | probe-labelled cysteine peptide fold change (10 µM) | probe-labelled cysteine peptide fold change (50 µM) |
| --- | --- | --- |
| NOL10_Q9BSC4_147_DFSYHYPSCDLYFVGASSEVYR (UniProt Q9BSC4) | -0.459 | -0.299 |
| NSDHL_Q15738_340_VALAGTFHYYSCER (UniProt Q15738) | -0.11 | 0.0292 |
| NOTCH2_Q04721_1211_CSCPPGTR (UniProt Q04721) | -0.0747 | 0.0473 |
| NSUN2_Q08J23_502_DGVCGPPPSK (UniProt Q08J23) | 0.0572 | 0.0322 |
| NPM3_O75607_79_DECNVVEVVAR (UniProt O75607) | 0.188 | 0.236 |
| NPLOC4_Q8TAT6_403_DECLLPCK (UniProt Q8TAT6) | 0.0256 | -0.0669 |
| NSF_P46459_21_CPTDELSLTNCAVVNEK (UniProt P46459) | -0.046 | -0.0309 |
| NPEPL1_Q8NDH3_284_DCGGAAAVLGAFR (UniProt Q8NDH3) | -0.201 | 0.0255 |
| NPAT_Q14207_1172_ENELCSDVER (UniProt Q14207) | -0.152 | -0.13 |
| NLE1_Q9NVX2_216_WITGLSWEPLHANPECR (UniProt Q9NVX2) | 0.0997 | 0.201 |
| NKRF_O15226_37_HLSTCDGQNPPKK (UniProt O15226) | 0.014 | -0.342 |
| NSL1_Q96IY1_53_RAVTEMLQLCGR (UniProt Q96IY1) | -0.194 | 0.0899 |
| NOMO2_Q5JPE7_411_IAPNTPQLADIVATGFSVCGR (UniProt Q5JPE7) | 0.0887 | -0.00984 |
| NSUN2_Q08J23_599_NNSGEEFDCAFR (UniProt Q08J23) | 0.0552 | 0.0242 |
| NKTR_P30414_32_IMFQLFSDICPK (UniProt P30414) | -0.0454 | -0.12 |
| NSUN2_Q08J23_235_LSSPCIMVVNHDASSIPR (UniProt Q08J23) | 0.071 | -0.0234 |
| NOCT_Q9UK39_136_TDCPSTHPPIR (UniProt Q9UK39) | -3.04e-05 | -0.206 |
| NPM1_P06748_21_MEDSMDMDMSPLRPQNYLFGCELK (UniProt P06748) | -0.279 | -0.642 |
| NOL10_Q9BSC4_79_CYDTYQLSLK (UniProt Q9BSC4) | 0.257 | 0.182 |
| NOL8_Q76FK4_556_QCIRPAEIVASLLEGEENTCGK (UniProt Q76FK4) | -0.031 | -0.204 |
| NOTCH1_P46531_1345_CPAGFEGATCENDAR (UniProt P46531) | 0.198 | -0.039 |
| NONO_Q15233_145_FACHSASLTVR (UniProt Q15233) | 0.123 | 0.0369 |

Single records (already shown). Order of values: probe-labelled cysteine peptide fold change (10 µM)	probe-labelled cysteine peptide fold change (50 µM)
NSF_P46459_21_CPTDELSLTNCAVVNEK (UniProt P46459) in the list: -0.046	-0.0309
NKRF_O15226_37_HLSTCDGQNPPKK (UniProt O15226) in the list: 0.014	-0.342

Source: the supplement of paper PMC12067093, “Discovery and optimisation of a covalent ligand for TRIM25 and its application to targeted protein ubiquitination” (Chemical Science, 2025)
